Test results: PubChem BioAssay AID540275 (National Center for Advancing Translational Sciences (NCATS), 2011)
Screen size: about 320,000 compounds; about 620 (0.19%) were called active. The inconclusive results got no clear call from the source; some entries with a clear call stand among them for comparison. Rule as the data show it: active = activation above about 80%; inconclusive = between about 30% and that limit; inactive = weaker than that.

Amino acid sequences for entries named in this document (tags omitted).
UniProt Q8NER1, whole entry, looked up: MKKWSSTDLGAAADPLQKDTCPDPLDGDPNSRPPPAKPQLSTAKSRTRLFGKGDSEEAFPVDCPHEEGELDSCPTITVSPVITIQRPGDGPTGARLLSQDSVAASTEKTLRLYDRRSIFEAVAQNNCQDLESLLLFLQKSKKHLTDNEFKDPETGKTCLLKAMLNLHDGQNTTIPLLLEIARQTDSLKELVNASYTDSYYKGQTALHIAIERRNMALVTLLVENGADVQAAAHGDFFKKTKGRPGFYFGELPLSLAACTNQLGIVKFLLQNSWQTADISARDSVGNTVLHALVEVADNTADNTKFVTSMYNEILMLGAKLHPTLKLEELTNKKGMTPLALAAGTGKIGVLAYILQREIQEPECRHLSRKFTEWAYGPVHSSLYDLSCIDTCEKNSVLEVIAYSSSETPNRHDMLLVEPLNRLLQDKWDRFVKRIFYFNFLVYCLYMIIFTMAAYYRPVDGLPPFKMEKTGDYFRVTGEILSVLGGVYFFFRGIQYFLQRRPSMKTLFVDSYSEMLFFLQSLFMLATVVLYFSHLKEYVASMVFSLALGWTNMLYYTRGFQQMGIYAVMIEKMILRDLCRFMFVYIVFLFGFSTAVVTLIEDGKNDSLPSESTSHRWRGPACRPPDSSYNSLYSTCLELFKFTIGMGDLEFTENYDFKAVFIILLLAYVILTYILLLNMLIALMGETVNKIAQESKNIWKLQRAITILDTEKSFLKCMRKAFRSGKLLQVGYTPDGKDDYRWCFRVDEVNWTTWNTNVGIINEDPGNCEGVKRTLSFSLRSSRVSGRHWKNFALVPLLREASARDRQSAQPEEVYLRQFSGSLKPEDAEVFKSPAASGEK

These compounds were tested against Transient receptor potential cation channel subfamily V member 1 (Homo sapiens) (UniProt Q8NER1) (assay: HTS Assay for Compounds that Act as Agonists of the Vanilloid Receptor 1). Settings: TRPV1-expressing cells, Fluo-8 calcium influx, agonist mode; at 8.33 µM, active compounds read high.
Summary of the method: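 Cells expressing TRPV1 were dye-loaded with Fluo-8 and read kinetically: 10 s baseline, 3 min after compound (agonist portion), then 2 min after EC20 capsaicin (allosteric enhancer portion). Calcium-bound dye fluorescence at 480/520 nm.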
Also: 0% is about no effect.

Structure (SMILES) | activation
O=C(Nc1cccc2ccccc12)N1CCc2ccccc2C1 | inconclusive: 49.1%
CCOC(=O)NC(=O)/C(C#N)=C\NNc1ncc(C(F)(F)F)cc1Cl | inactive: 2.1%
NC(=O)c1ccccc1NC(=O)/C=C/c1ccc(Cl)cc1 | inconclusive: 55.6%
CCOC(=O)C1CCCN(C2=NC(=O)/C(=C/c3ccc(OC)cc3)S2)C1 (centres undefined) | inactive: 7.2%
Cc1ccc(NC(=O)NCc2ccncc2)cc1Cl | inconclusive: 34.2%
Cc1cccc(NC(=O)CSc2cccc3cccnc23)c1 | inactive: 2.08%
O=C(Nc1ccc(F)c(F)c1)C1CCN(S(=O)(=O)c2cccs2)CC1 | inconclusive: 55%
CSc1nc(C(=O)N2CCCC(C(=O)c3ccc(Cl)cc3)C2)cs1 (centres undefined) | inconclusive: 37.7%
CCCn1c(C(C)Nc2nc(-c3cc(Cl)c(N)c(Cl)c3)cs2)nc2cc(Cl)c(N3CCCCC3)cc21 (centres undefined) | active: 85.6%
O=C(N/N=C/c1cccnc1)c1ccc2c(c1)OCO2 | active: 90.3%
CC(C)=CC(=O)OCC(=O)Nc1ccc(SC(F)F)cc1 | inconclusive: 46.8%
O=C1NC2(CCCCC2)C(=O)N1Cc1cccc(C(F)(F)F)c1 | inconclusive: 32.9%
CCc1nc(SCC(=O)N2c3ccccc3CC2C)c2c(C)c(C)sc2n1 (centres undefined) | inconclusive: 38.2%
CCOc1ccccc1NC(=O)c1cccc2c1C(=O)N(C1CCCCC1)C2 | inconclusive: 38%
Cc1ccc(CNC(=O)CCSCc2cccc(F)c2)cc1 | inconclusive: 48.3%
Oc1ccc(N=Nc2nc(-c3ccccc3)c(-c3ccccc3)[nH]2)cc1 | inconclusive: 50%
CC(C)n1c(O)c(N=NC(=O)CNC(=O)CCc2ccccc2)c2ccccc21 | inactive: 8.93%
COc1ccc(Cl)cc1N1C(=O)C2CCCN2C1c1ccc(F)cc1 (centres undefined) | inconclusive: 40.3%
COc1ccc(-c2cc3cc(C(=O)O)ccn3c2C(=O)c2ccccc2)cc1 | inactive: 1.08%
CCSc1ccc(-c2nn(-c3ccccc3)cc2/C=C(/C#N)C(=O)NC)cc1 | inconclusive: 61.2%
Cc1cccc(NC(=O)NC2CCCCCCC2)c1 | inconclusive: 42.8%
CC1CCN(CCCNC(=O)c2cn(C)c3ccc(S(=O)(=O)N4CCCC4)cc3c2=O)CC1 | inactive: -2.99%
CCc1ccc(CN(C)C(=O)c2cc(COc3cccc(C(F)(F)F)c3)on2)nc1 | inconclusive: 40.8%
O=C(COC(=O)c1cccs1)NC12CC3CC(CC(C3)C1)C2 | inconclusive: 36.7%

Taken from the entries so far (5 entries):
Structure (SMILES) | activation
Cc1ccc(NC(=O)NCc2ccncc2)cc1Cl | inconclusive: 34.2%
Cc1cccc(NC(=O)CSc2cccc3cccnc23)c1 | inactive: 2.08%
O=C(Nc1ccc(F)c(F)c1)C1CCN(S(=O)(=O)c2cccs2)CC1 | inconclusive: 55%
CSc1nc(C(=O)N2CCCC(C(=O)c3ccc(Cl)cc3)C2)cs1 (centres undefined) | inconclusive: 37.7%
CCCn1c(C(C)Nc2nc(-c3cc(Cl)c(N)c(Cl)c3)cs2)nc2cc(Cl)c(N3CCCCC3)cc21 (centres undefined) | active: 85.6%

Single values from above:
For activation, CCOC(=O)C1CCCN(C2=NC(=O)/C(=C/c3ccc(OC)cc3)S2)C1 (centres undefined) is listed with inactive: 7.2%
For activation, CCOc1ccccc1NC(=O)c1cccc2c1C(=O)N(C1CCCCC1)C2 is listed with inconclusive: 38%
For activation, CCOC(=O)NC(=O)/C(C#N)=C\NNc1ncc(C(F)(F)F)cc1Cl is listed with inactive: 2.1%

(more compounds)

Structure (SMILES) | activation
O=C(NCc1ccc(F)cc1)C1CCCN(c2nc3ccsc3c(=O)s2)C1 (centres undefined) | active: 83%
O=C(c1ccc(Br)s1)N1CCN(C/C=C/c2ccccc2)CC1 | inconclusive: 33%
Cc1ccnc(NC(=O)/C=C/c2cccs2)c1 | inconclusive: 64.6%
CC(=O)c1ccc(Nc2nc(-c3cccnc3)cs2)cc1 | inactive: 1.51%
CC1CCCCN1c1nc2nonc2nc1N1CCCCC1C (centres undefined) | inconclusive: 31.5%
N/C(=N/OC(=O)c1ccccc1F)c1nonc1N | inactive: 7.02%
O=C(NC1CCCCCC1)c1cc(S(=O)(=O)N2CCCCC2)ccc1N1CCOCC1 | inconclusive: 49.5%
O=C(CCNc1cccc(Cl)c1)c1cccs1 | inconclusive: 35.2%
CCN(CC)S(=O)(=O)c1ccc(N2CCOCC2)c(NC(=O)CC(C)(C)C)c1 | inconclusive: 61%
COc1ccc(C(=O)Nc2cccnc2Cl)cc1OC | inactive: -1.29%
Brc1ccc(-c2csc(NC3=NCCCCC3)n2)cc1 | inconclusive: 41.1%
Cc1ccc(C)c(/C=N/NC(=S)NC(C)C)c1 | inactive: 1.37%
CCC(=O)N1CCN(c2ccccc2NC(=O)c2cccc(C)c2)CC1 | inconclusive: 45.3%
CCOc1ccc(CCNS(=O)(=O)c2cc3c(cc2C)NC(=O)CO3)cc1OCC | inactive: -0.813%
Cn1cc(S(=O)(=O)NCCc2ccccc2)c(=O)n(C)c1=O | inactive: -2.05%
COC(=O)c1ccc2c(=O)n(-c3ccccc3)c(=S)[nH]c2c1 | inactive: 2.01%
Cc1ccc(OC(C)C(=O)N2CCc3ccccc32)cc1 (centres undefined) | inconclusive: 40.4%
O=C(Nc1cc2c3c(c1)C1CCCC1CN3CC1CCCC21)c1ccccc1 (centres undefined) | inconclusive: 50.9%
COc1ccc(Nc2nc(N3CCOCC3)nc(N3CCOCC3)n2)cc1 | inactive: 1.95%
Cc1cc(Cl)ccc1OCC(=O)Nc1ccccc1C(=O)N1CCOCC1 | inconclusive: 32.7%
Cc1ccn2cc(-c3ccc(Br)cc3)nc2c1 | inconclusive: 42.5%
CC(C)(C)c1ccc(C(=O)NCCCn2ccnc2)cc1 | inconclusive: 34.3%
C=C(C)CSc1cc(C)c(C#N)c2nc3ccccc3n12 | inactive: -6.23%
CCC1CSC(=Nc2ccc(C)cc2)N1C(=O)CN1C(=O)NC2(CCCC2)C1=O (centres undefined) | inconclusive: 31.9%

Structure (SMILES) | activation
COCCNC(=O)CSc1cc(-c2ccccc2)c2ccc(OC)cc2n1 | inconclusive: 30.1%
O=C(COC(=O)C1CC1)Nc1ccc(Oc2ccccc2)cc1 | inconclusive: 39%
Cc1ccsc1/C=N/NC(=O)c1nnn(-c2nonc2N)c1C | inactive: 18.8%
CCCN(S(=O)(=O)c1ccccc1F)S(=O)(=O)c1ccccc1Br | inconclusive: 37.1%
O=C(/C=C/c1ccco1)Nc1ccc(Oc2ccc(Cl)cc2)cc1 | inconclusive: 53.3%
O=C(Nc1cc(S(=O)(=O)N2CCOCC2)ccc1N1CCCCC1)c1ccccc1 | inconclusive: 48.2%
Cc1ccc(CN(c2ccc(C(=O)Nc3ccc4c(c3)OCO4)cc2)S(C)(=O)=O)cc1 | inconclusive: 37%
Cn1cc(Cl)c(C(=O)N/N=C/c2ccc(OS(=O)(=O)c3ccccc3)cc2)n1 | inconclusive: 35.9%
COc1ccccc1NC(=S)NCCc1ccc(Cl)cc1 | inconclusive: 68.1%
O=C(c1ccccc1)c1cccc(C(=O)c2ccccc2)c1 | inconclusive: 42.4%
CSCc1c(C(=O)OCC(=O)NC2CCCCC2)oc2ccccc12 | inconclusive: 32.3%
O=C(CCC1CCCCC1)Nc1c2c(nn1-c1ccc(F)cc1)CS(=O)(=O)C2 | inconclusive: 45.9%
CCC(C)(CCNC(=O)Cc1ccccc1)c1ccccc1OC (centres undefined) | inconclusive: 69.9%
CN(C)CCNS(=O)(=O)c1ccc2c3c(cccc13)C(=O)N2 | inactive: 5.92%
CC1CC(C)CN(C(=O)/C=C/c2ccc(S(=O)(=O)N3CCOCC3)cc2)C1 (centres undefined) | inconclusive: 34.6%
Cc1cccc(OCCSCc2nc3ccccc3[nH]2)c1 | inconclusive: 53.3%
CC(C)NC(=O)N1CC(c2ccccc2)C(c2ccc(Cl)cc2)=N1 (centres undefined) | inconclusive: 41.4%
NC(=O)c1cccc(NC(=O)Nc2ccc(Cl)cc2)c1 | inconclusive: 48.3%
CC1=CC(C)=Nc2ccccc2N1 | inactive: 13.3%
O=c1c2c(-c3ccccc3)csc2nc2c3ccccc3c(NCCN3CCOCC3)nn12 | inconclusive: 34%
O=C(c1cc(-c2ccc(Cl)cc2)on1)N1CCCC1 | inconclusive: 35.9%
Clc1ccc(COn2nnc3ccccc32)c(Cl)c1 | inconclusive: 45.8%
CC1CCc2sc3c(c2C1)c(=O)n(CC(=O)O)c(=O)n3Cc1ccc(Cl)cc1 (centres undefined) | inconclusive: 30.2%
Cc1cc(Cl)ccc1OCCCC(=O)NCc1ccncc1 | inconclusive: 76.3%

Structure (SMILES) | activation
CCN(CC)CCC(C)OC(c1ccccc1)c1ccccc1 (centres undefined) | inactive: 2.71%
O=C(Nc1ccccc1)Nc1ccc2c(c1)CCC2 | inconclusive: 64.6%
O=C(Nc1ccc2c(c1)CCC2)c1cc2ccccc2o1 | inconclusive: 65.8%
CC(=O)Nc1ncnc2c1c(-c1ccc(Cl)cc1)nn2C(C)(C)C | inconclusive: 71.4%
Cc1cccc2[nH]c(SCC(=O)N3CCOCC3)nc12 | inactive: 1%
Cc1nnc(NC(=O)c2sc3ccccc3c2Cl)s1 | inactive: -4.3%
COc1ccccc1CN(C)C(C)C(=O)Nc1cccc(C(C)=O)c1 (centres undefined) | inconclusive: 55.9%
COc1ccc(OC)c(C(Nc2ccccc2)P(=O)(OC(C)C)OC(C)C)c1 (centres undefined) | inconclusive: 32.7%
Cc1ccccc1CNC(=O)c1ccc(Cl)c([N+](=O)[O-])c1 | inconclusive: 62.1%
O=C(NCCC1=CCCCC1)c1cc(S(=O)(=O)N2CCOCC2)c(Cl)cc1Cl | inconclusive: 52.5%
N#CC(C#N)=Cc1cn(-c2ncc(C(F)(F)F)cc2Cl)c2ccccc12 | inactive: 8.08%
Cc1ccc(/C=C/c2onc(C)c2S(=O)(=O)N2CCC(C(=O)NC(C)(C)C)CC2)cc1 | inconclusive: 32.6%
O=C(N/N=C/c1cccc(Oc2ccccc2)c1)c1ccc(O)cc1O | inconclusive: 65.6%
Cc1ccc(-c2cc(-c3ccc(C)cc3O)[nH]n2)cc1 | inactive: 0.465%
O=C(Nc1ccc(C(=O)c2ccccc2)cc1)c1ccccc1 | inconclusive: 78.7%
COc1ccc(C(=O)NCCC2=CCCCC2)cc1[N+](=O)[O-] | active: 88.1%
OC(CNCC1(N2CCCCC2)CCCCC1)COc1ccc(Cl)cc1Cl (centres undefined) | inactive: 3.41%
CCc1ccc(N2CC(C(=O)Nc3ccc4c(c3)OCCO4)CC2=O)cc1 (centres undefined) | inconclusive: 60.8%
CCOC(=O)c1sc2nc(N3CCOCC3)c3c(c2c1N)CCN(Cc1ccccc1)C3 | inactive: -4.01%
COc1ccc(CNC(=O)/C=C/c2ccco2)cc1OC | inconclusive: 33.7%
O=C(Nc1ccccn1)c1ccc(C(=O)c2ccccc2)cc1 | inconclusive: 32.5%
NNC(=O)c1cccn(Cc2ccc(Cl)cc2Cl)c1=O | inactive: -2.35%
